Data on one molecule can be found in article PMC7401805, “Tissue specific requirement of Drosophila Rcd4 for centriole duplication and ciliogenesis” (The Journal of Cell Biology, 2020).

These are yes or no findings as the source states them, for the method shown. Binding seen in cells or lysates may run through a third protein. Some results given as binding are weak or reduced against the parent protein; the word gives no strength. Sequences can lack the tags named with a protein.

Assay [1] has as its target T1, GST-tagged full-length Ana3 (Drosophila melanogaster, UniProt A1Z8X3 1-1977).
T1 construct: Ana3, Drosophila melanogaster; also called GST::Ana3; GST-Ana3; source: S. cerevisiae (plasmid pMG1): coexpressed with 6xHis-Rcd4, in crude extract; also expressed alone and purified on glutathione beads
As to the kind of experiment: pull-down; GST-Ana3 constructs and 6xHis-Rcd4 coexpressed in S. cerevisiae; GST-Ana3 purified from crude extract on glutathione beads (50 mM Tris pH 7.5, 250 mM NaCl, 0.2% NP-40, 5 mM DTT), eluted with 20 mM glutathione; anti-6xHis Western blot. On the technique in general: Immunoblotting shows a protein as a band on a membrane.

The target in assay [2] is T2, GST-tagged Ana3-C1 fragment (amino acids 1195-1977), yeast (Drosophila melanogaster) (UniProt A1Z8X3).
T2 sequence: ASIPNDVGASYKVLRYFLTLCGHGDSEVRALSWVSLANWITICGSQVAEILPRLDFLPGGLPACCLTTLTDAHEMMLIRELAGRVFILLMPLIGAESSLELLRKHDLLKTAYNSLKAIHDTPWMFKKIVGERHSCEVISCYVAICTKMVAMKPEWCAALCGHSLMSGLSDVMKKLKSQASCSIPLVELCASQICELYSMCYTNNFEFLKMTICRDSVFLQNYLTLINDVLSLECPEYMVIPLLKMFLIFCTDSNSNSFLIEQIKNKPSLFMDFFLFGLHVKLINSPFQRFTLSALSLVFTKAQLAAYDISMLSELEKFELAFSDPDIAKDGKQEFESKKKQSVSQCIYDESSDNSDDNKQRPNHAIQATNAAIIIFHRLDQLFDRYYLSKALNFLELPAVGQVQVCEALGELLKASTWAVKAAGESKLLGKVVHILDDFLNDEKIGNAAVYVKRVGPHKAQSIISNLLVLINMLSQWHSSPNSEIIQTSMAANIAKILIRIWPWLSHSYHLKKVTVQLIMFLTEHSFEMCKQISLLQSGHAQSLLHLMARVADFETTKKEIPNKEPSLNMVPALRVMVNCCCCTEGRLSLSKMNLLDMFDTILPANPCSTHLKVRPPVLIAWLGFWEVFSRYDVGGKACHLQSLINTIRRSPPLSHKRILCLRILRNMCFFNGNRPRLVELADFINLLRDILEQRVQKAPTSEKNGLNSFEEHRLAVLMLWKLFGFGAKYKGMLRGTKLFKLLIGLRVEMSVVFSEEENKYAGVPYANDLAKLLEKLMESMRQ
The description is as above.

B1: 6xHis-tagged Rcd4 (protein, UniProt Q9VLM6 1-199)
chain: MPHKRRNRVHANQRNFTARRVSVAKLSSAPPNVLVESCNGSHADNSSPDSPKAKEGAMTNGKNPEIKLAVPKCNTTVRKQNEAHIISNIKLDMNLNKDSNFIAPQITKKMNFAPNRVVFGVLVPLNVNDSVLVPHNRKPDALKHTSKESESCKAISEPQLADYAEKVDPMIMAVKEPVLHLDWEPGPFDFFGAYRRTYN
For the molecule B1, the binding result in assay [1] and in assay [2] was “binds” in each case.
